Experimental data from the supplement of paper PMC10849652.
This is one part of the list.

Protein sequences, listed by entry. Tags and fused reporters are not part of them. Lines headed by an entry give the natural chain unless they say otherwise; changes in a name come on top.
UniProt Q8NG68: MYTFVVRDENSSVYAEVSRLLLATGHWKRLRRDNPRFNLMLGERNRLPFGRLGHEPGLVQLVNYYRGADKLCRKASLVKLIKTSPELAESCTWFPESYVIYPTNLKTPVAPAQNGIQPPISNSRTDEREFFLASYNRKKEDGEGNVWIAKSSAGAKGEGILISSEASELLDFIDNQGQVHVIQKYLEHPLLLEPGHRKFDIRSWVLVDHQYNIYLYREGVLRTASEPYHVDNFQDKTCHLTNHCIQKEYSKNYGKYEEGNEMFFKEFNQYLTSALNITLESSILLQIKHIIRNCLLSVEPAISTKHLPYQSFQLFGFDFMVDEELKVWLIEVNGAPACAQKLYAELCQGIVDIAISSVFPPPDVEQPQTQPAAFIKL
UniProt Q9UJK0: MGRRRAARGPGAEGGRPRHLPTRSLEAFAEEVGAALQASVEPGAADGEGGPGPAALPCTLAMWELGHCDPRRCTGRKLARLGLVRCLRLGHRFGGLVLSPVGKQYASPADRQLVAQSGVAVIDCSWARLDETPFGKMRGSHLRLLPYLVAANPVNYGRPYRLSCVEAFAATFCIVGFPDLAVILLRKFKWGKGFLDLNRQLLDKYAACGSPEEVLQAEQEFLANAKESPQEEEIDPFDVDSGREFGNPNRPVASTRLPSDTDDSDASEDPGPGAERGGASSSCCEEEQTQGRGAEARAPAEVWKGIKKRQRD
UniProt Q9Y5U2: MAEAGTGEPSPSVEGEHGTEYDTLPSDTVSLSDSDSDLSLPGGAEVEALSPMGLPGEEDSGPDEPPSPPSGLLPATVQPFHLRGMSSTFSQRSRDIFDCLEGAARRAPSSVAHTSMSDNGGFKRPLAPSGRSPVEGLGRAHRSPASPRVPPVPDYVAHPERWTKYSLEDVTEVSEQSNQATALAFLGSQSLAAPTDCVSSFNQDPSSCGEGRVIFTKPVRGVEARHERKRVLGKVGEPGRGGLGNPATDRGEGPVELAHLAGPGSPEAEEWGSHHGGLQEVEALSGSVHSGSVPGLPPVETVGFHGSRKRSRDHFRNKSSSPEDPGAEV
UniProt Q13454: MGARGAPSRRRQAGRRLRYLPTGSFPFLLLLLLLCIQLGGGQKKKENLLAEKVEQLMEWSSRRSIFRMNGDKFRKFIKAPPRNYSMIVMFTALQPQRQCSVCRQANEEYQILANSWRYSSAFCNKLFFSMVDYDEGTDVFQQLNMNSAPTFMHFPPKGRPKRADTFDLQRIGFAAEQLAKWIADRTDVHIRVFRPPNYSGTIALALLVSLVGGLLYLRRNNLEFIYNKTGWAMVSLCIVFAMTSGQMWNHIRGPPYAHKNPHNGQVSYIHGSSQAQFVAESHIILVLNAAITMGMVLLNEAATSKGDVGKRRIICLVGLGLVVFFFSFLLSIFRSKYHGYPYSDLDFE
UniProt Q8NBS9: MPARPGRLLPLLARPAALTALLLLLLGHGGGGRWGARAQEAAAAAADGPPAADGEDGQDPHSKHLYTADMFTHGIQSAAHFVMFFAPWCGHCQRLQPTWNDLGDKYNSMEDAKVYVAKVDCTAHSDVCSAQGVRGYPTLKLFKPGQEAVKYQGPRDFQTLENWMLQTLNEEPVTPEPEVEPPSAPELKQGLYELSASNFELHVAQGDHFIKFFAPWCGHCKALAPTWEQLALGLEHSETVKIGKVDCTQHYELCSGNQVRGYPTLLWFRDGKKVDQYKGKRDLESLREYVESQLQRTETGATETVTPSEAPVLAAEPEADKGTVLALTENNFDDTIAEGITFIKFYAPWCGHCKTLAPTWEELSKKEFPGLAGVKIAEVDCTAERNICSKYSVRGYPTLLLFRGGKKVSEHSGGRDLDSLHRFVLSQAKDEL
UniProt P83876: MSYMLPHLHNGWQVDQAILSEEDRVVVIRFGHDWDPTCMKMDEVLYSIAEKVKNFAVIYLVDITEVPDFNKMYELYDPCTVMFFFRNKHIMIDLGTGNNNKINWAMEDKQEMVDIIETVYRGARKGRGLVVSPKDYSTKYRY
UniProt P10599: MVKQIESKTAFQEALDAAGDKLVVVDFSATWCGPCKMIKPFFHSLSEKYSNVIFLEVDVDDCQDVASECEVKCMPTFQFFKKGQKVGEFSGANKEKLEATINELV
UniProt P61077: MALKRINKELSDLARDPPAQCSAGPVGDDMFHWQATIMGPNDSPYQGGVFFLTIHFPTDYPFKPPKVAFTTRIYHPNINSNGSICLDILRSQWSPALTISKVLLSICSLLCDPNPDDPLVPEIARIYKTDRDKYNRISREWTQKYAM
UniProt Q13630: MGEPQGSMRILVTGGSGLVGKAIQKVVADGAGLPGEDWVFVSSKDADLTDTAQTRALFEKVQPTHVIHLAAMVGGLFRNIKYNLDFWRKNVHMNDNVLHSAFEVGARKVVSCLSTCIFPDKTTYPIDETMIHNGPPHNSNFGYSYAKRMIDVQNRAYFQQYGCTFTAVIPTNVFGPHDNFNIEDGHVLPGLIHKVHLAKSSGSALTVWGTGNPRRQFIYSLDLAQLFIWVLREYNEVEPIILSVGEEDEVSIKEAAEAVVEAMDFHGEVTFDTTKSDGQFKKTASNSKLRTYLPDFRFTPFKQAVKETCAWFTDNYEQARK
UniProt Q9H4B7, whole entry, looked up: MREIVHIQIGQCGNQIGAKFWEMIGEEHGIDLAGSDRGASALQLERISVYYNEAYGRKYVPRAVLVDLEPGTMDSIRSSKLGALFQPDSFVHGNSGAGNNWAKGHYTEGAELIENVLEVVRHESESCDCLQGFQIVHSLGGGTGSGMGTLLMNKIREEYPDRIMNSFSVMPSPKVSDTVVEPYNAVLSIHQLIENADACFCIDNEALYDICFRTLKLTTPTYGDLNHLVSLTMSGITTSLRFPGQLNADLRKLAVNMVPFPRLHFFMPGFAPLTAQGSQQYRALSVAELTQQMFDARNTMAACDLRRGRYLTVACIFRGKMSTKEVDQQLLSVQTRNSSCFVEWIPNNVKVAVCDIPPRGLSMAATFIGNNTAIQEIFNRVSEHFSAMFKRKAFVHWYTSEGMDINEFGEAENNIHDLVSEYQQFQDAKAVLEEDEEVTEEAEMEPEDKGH
UniProt Q9NUQ3: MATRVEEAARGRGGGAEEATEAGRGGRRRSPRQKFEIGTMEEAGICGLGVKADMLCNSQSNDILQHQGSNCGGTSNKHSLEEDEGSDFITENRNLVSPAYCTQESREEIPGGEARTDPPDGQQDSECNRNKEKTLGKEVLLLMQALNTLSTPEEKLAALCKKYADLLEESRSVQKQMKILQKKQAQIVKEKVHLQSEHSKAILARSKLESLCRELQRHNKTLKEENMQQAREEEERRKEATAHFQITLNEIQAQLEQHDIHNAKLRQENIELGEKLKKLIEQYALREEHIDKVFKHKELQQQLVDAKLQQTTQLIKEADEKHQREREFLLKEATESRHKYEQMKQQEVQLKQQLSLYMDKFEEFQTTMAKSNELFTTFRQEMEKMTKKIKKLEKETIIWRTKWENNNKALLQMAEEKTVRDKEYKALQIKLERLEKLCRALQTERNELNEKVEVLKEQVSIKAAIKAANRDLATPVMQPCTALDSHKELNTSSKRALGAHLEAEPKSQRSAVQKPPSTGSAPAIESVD

These targets were tested with c1cn2cc(-c3ccc4cn[nH]c4c3)nc(Nc3ccc(N4CCOCC4)cc3)c2n1 [entospletinib] (assay: log2 fold change, soluble protein after heating vs DMSO (PISA); higher = thermal stabilisation; K562 cells, 10 uM, 30 min; active = over 0.2 and 3.5 SD of the protein, either way, in both replicates (recomputed)).
How it was run: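 K562 cells at 2×10^6 cells/mL were treated with 10 μM compound for 30 min. Aliquots were heated for 3 min across 48°C-58°C, pooled, and extracted in PBS with 0.5% NP-40 at 4°C; soluble protein was the supernatant after 21,000xg for 90 min. Soluble protein was quantified by TMTpro 16plex LC-MS/MS with channel sums equalised, and reported as log2 fold change in thermal stability against DMSO controls, with values from duplicates.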

log2 fold change, inactive:
TTL (UniProt Q8NG68) 0.117, TSR3 (UniProt Q9UJK0) 0.028, TSSC4 (UniProt Q9Y5U2) 0.006, TUSC3 isoform 2 (UniProt Q13454) -0.042, TXNDC5 (UniProt Q8NBS9) 0.002, TXNL4A (UniProt P83876) 0.025, TXN (UniProt P10599) 0.003, UBE2D3 isoform 3 (UniProt P61077) 0.018, TSTA3 (UniProt Q13630) -0.021, TUBB1 (UniProt Q9H4B7) -0.007, TXLNG (UniProt Q9NUQ3) -0.047
